Experimental findings from the supplement of paper PMC11006884 are described below.

Sequences of proteins named here, by UniProt entry; tags and fusion partners are left off. A change or cut given only in a name is not applied to a line headed by its entry.
UniProt Q9Y520: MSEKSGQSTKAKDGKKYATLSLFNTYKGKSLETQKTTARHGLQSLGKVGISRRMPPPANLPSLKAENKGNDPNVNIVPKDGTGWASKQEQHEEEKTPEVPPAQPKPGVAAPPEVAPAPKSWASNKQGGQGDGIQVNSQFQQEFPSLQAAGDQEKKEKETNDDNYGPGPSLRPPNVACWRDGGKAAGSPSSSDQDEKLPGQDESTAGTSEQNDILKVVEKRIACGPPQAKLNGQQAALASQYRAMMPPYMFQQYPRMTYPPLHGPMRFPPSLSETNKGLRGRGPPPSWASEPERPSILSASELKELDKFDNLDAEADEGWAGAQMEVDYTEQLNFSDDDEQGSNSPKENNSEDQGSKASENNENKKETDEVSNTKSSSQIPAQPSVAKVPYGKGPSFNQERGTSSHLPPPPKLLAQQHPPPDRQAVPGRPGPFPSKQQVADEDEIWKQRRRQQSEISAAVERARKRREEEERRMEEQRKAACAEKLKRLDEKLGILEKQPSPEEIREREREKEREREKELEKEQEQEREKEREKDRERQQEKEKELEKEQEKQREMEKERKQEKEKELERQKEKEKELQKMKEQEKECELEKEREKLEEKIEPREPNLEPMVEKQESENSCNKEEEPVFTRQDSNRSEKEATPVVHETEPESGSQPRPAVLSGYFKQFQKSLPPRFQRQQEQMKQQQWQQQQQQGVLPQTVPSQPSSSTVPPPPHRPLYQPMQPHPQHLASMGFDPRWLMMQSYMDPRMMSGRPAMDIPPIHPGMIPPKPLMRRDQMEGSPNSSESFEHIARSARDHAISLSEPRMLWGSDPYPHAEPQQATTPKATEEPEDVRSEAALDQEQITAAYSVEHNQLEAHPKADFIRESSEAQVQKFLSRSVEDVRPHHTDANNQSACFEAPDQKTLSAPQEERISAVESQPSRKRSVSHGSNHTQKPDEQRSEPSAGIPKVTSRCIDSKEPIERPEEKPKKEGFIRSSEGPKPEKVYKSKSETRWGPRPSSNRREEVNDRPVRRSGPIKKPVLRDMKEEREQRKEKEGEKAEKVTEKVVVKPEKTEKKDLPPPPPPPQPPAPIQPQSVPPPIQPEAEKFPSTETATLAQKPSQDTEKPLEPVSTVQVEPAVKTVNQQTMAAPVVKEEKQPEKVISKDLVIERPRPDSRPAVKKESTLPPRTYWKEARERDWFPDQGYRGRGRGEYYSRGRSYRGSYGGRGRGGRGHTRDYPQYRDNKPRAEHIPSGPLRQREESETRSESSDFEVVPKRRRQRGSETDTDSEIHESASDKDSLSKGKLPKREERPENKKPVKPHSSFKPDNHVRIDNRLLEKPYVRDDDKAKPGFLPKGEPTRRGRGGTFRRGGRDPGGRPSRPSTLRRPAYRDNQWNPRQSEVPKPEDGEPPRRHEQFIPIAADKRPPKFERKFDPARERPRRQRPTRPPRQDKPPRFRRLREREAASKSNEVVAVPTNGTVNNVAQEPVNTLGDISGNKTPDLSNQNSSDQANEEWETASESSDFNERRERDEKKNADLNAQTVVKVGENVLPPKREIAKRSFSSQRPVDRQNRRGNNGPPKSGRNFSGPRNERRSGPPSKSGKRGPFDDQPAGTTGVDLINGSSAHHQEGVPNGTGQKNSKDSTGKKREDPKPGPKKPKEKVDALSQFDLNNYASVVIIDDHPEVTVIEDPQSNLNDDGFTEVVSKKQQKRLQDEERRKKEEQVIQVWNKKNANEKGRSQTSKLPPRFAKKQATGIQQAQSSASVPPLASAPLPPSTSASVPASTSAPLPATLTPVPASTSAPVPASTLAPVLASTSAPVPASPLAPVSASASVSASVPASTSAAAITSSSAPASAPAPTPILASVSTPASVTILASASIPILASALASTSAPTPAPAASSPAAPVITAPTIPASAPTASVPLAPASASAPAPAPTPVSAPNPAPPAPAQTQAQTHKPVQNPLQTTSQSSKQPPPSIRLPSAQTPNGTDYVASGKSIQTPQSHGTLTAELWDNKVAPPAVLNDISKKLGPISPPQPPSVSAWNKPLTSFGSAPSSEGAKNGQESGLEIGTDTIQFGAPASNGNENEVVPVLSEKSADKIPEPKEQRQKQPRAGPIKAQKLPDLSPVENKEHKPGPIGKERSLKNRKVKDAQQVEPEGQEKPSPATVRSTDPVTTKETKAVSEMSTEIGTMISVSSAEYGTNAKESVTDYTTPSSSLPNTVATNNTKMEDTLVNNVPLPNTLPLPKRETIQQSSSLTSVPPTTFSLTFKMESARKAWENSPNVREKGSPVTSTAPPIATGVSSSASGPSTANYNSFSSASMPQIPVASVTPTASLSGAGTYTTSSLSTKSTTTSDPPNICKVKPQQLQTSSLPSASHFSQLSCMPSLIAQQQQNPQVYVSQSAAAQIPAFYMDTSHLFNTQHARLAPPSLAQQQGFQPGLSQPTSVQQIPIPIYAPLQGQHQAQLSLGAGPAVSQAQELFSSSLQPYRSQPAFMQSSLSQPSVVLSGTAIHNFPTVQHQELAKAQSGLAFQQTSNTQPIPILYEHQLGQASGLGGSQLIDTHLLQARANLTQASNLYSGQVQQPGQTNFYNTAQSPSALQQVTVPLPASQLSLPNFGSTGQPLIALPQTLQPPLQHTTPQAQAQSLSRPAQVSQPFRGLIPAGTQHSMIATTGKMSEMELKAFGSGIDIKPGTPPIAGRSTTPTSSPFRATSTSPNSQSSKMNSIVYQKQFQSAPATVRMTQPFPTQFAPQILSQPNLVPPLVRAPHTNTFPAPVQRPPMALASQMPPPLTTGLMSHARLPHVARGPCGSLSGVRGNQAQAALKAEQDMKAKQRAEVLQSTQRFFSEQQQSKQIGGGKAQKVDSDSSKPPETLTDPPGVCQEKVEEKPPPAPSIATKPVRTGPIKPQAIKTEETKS
UniProt Q9Y4W2: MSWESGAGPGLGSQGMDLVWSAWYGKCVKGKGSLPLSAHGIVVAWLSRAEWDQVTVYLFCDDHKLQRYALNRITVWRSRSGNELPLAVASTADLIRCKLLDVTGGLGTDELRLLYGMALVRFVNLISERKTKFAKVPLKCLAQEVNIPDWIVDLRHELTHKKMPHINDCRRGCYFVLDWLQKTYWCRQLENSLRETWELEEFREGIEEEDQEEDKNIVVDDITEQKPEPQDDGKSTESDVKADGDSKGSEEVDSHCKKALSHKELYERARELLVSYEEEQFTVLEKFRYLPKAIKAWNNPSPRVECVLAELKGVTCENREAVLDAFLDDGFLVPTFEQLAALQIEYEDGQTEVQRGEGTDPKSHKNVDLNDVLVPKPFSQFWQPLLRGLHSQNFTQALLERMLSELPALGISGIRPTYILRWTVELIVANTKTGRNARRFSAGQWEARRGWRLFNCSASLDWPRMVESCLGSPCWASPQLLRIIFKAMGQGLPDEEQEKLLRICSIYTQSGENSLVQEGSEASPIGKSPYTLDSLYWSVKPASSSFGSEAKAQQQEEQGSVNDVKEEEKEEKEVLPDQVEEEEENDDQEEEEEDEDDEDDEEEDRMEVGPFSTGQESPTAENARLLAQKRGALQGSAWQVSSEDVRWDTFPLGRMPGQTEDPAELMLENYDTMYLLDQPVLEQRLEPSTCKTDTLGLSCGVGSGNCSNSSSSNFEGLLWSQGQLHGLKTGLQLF
UniProt Q9Y4Z0: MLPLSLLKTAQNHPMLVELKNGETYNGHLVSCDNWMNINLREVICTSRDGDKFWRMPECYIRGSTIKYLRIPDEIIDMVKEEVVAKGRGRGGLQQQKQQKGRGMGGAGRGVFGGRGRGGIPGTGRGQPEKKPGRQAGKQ
UniProt Q9Y6R4: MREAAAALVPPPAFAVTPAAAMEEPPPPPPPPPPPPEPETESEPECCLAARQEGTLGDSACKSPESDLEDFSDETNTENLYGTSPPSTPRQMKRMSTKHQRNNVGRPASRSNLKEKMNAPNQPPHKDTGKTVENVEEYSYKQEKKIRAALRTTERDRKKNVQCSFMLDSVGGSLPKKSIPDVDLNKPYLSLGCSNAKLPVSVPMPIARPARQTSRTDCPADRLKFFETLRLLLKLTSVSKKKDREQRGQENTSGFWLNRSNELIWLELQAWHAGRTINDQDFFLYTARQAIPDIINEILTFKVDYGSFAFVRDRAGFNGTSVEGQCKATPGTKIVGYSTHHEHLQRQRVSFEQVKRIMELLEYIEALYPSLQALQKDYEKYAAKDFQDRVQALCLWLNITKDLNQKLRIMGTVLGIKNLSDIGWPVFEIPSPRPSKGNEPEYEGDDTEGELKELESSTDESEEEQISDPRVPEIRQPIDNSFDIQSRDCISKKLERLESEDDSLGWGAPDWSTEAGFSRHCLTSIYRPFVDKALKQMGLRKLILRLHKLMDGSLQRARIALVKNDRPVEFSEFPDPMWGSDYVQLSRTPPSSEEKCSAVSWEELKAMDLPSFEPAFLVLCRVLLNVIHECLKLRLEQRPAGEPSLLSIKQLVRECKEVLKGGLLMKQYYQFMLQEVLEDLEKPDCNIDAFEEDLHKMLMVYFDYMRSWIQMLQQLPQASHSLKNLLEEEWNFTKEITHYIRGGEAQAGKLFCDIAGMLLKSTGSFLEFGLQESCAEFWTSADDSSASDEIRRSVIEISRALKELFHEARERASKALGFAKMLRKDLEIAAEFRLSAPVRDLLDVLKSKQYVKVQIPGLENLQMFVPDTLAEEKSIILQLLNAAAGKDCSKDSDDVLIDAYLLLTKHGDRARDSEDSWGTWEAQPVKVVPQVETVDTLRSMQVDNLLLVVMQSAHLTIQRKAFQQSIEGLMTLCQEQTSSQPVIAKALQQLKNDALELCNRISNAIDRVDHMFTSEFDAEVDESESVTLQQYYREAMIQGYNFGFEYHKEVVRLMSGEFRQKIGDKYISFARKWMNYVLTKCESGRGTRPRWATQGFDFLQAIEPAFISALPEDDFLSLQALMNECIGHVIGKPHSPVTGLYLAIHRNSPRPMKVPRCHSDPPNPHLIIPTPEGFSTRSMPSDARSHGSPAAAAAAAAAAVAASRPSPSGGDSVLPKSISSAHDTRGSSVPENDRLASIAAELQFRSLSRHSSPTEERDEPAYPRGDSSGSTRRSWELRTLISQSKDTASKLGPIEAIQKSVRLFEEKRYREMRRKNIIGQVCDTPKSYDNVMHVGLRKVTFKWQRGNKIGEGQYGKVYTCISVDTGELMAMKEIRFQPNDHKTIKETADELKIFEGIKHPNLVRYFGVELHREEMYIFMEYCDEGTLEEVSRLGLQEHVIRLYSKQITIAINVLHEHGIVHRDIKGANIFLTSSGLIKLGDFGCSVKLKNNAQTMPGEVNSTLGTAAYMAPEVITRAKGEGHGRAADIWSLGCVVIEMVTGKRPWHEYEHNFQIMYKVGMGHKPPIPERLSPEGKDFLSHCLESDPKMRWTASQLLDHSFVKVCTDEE
UniProt Q9Y5U2: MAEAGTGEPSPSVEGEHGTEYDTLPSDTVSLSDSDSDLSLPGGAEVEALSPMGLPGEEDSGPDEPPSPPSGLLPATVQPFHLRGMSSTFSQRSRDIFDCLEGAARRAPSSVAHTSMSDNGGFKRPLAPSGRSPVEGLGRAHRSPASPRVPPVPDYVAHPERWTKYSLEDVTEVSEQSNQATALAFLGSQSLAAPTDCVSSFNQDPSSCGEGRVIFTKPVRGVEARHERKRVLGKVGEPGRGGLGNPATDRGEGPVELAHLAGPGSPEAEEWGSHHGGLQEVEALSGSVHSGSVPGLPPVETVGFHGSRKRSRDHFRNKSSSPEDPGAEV
UniProt Q9Y678: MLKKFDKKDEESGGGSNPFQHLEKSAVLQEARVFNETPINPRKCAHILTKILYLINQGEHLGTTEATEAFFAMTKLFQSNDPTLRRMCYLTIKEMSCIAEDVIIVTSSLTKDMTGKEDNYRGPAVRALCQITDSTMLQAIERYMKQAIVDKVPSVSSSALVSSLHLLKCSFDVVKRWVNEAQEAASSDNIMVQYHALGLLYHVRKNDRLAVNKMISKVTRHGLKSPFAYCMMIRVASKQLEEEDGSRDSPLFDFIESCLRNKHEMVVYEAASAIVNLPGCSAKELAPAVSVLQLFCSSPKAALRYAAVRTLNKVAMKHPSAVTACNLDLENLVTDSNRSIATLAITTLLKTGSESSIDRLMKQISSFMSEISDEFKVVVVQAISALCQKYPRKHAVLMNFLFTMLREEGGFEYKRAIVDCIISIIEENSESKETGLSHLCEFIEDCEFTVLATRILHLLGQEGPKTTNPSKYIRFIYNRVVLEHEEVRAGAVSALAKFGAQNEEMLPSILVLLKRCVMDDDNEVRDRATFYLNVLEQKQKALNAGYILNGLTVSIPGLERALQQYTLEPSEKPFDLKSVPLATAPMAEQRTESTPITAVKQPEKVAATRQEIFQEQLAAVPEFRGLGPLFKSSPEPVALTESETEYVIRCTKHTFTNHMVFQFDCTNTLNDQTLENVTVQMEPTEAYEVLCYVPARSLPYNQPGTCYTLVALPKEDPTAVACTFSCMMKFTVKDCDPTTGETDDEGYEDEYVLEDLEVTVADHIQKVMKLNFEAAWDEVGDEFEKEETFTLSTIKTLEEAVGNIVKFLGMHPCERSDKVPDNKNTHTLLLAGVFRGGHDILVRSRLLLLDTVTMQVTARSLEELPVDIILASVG

This is a selection; strong and weak results do not stand in their true shares.

Compound in the test: COC(=O)C#Cc1ccccc1 [methyl 3-phenylpropiolate]
As to the kind of experiment: log2 ratio of iodoacetamide-alkyne labeling of the cysteine site, DMSO over compound (competition); higher = stronger covalent engagement of the cysteine by the compound, active = 1 or more. The following applies: 500 µM; treatment time 1 h; system: HEK293T cell lysate. The essentials: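 HEK293T lysate (2 mg/mL) was treated with DMSO or electrophile (500 µM, 1 h, ambient temperature), then iodoacetamide alkyne (1 h), clicked to sCIP-TMT reagents, pooled, trypsin-digested overnight at 37 °C, streptavidin-enriched and acid-eluted. Peptides were run on Orbitrap Eclipse LC-MS/MS with FAIMS and quantified in FragPipe. The log2 competition ratio per cysteine is mean control-channel over mean compound-channel reporter intensity. Duplicate channels and three replicates were used, and cysteines quantified in only one replicate were excluded.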
For the target DTNA C583 (UniProt Q9Y4J8), the “log2 ratio of iodoacetamide-alkyne labeling” value (shortened to “log2 ratio”) was inactive: 0.31.

On to UniProt Q9Y520_C2340, for which the “log2 ratio” value was inactive: 0.672.

Take LAS1L C699 (UniProt Q9Y4W2): the “log2 ratio” value is inactive: 0.838.

For the target TELO2 C367 (UniProt Q9Y4R8), the “log2 ratio” value is inactive: 0.0485.

Consider FHOD1 C650 (UniProt Q9Y613), for which the “log2 ratio” value was inactive: 0.277.

As for PPME1 C381 (UniProt Q9Y570), the “log2 ratio” value is active: 1.48.

On to WASF2 C27 (UniProt Q9Y6W5), for which the “log2 ratio” value was inactive: -0.177.

Regarding AIM1 C976 (UniProt Q9Y4K1), the “log2 ratio” value is inactive: 0.347.

Consider NUBP2 C269 (UniProt Q9Y5Y2), for which the “log2 ratio” value is inactive: 0.154.

On to AFG3L2 C402 (UniProt Q9Y4W6), for which the “log2 ratio” value is inactive: 0.253.

Regarding TACC3 C206 (UniProt Q9Y6A5), the “log2 ratio” value was inactive: -0.132.

For the target TNPO3 C912 (UniProt Q9Y5L0), the “log2 ratio” value was inactive: 0.344.

As for USP15 C264 (UniProt Q9Y4E8), the “log2 ratio” value is inactive: 0.528.

CLIC4 C100 (UniProt Q9Y696): the “log2 ratio” value was inactive: 0.0178.

For LSM4 C45 (UniProt Q9Y4Z0), the “log2 ratio” value was inactive: 0.104.

With TELO2 C644 (UniProt Q9Y4R8), the “log2 ratio” value was inactive: 0.306.

In the case of TACC3 C459 (UniProt Q9Y6A5), the “log2 ratio” value is inactive: 0.32.

As for TLN1 C29 (UniProt Q9Y490), the “log2 ratio” value was inactive: 0.188.

For MAP3K4 C163 (UniProt Q9Y6R4), the “log2 ratio” value is inactive: 0.0336.

LAS1L C690 (UniProt Q9Y4W2): the “log2 ratio” value was inactive: 0.684.

Take ARIH1 C327 (UniProt Q9Y4X5): the “log2 ratio” value is inactive: 0.0642.

Turning to TCAF1 C543 (UniProt Q9Y4C2), the “log2 ratio” value is inactive: 0.0837.

On to RBM19 C293 (UniProt Q9Y4C8), for which the “log2 ratio” value is inactive: -0.167.

In the case of UniProt Q9Y5P4_C185, the “log2 ratio” value was inactive: 0.187.

As for UniProt Q9Y520_C177, the “log2 ratio” value is inactive: 0.692.

Take TSSC4 C99 (UniProt Q9Y5U2): the “log2 ratio” value was inactive: 0.0522.

In the case of UniProt Q9Y520_C481, the “log2 ratio” value was inactive: 0.63.

As for ARFGEF2 C1147 (UniProt Q9Y6D5), the “log2 ratio” value was inactive: 0.255.

In the case of UniProt Q9Y678_C325, the “log2 ratio” value is inactive: 0.253.

With UniProt Q9Y4C1_C947, the “log2 ratio” value is inactive: 0.215.

For MTCH2 C49 (UniProt Q9Y6C9), the “log2 ratio” value is inactive: -0.016.
